Record: PubChem BioAssay AID1259405 (NCATS, 2018)

Test: 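Knock-downs that lift recombinant protein yield in hamster ovary cells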 (primary screen)
Cell system: Chinese hamster CHO-K1 ovary cells with stable secreted eGFP expression
Reagents: single siRNA against mouse genes, 0.8 pmol siRNA per well (2 µl of 400 nM stock)
Duration: 3 days
Measured: 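Per-well intracellular GFP measured by laser scanning cytometry, plus viability from ATP luminescence, each relative to plate median of non-targeting control wells, in %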
Scale: GFP, % of control: higher = more GFP per well, higher productivity; viability (ATP), % of control: higher = more viable cells (more ATP)
Call rule: 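a knock-down is called active if GFP reaches 120% or more of non-targeting control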
The deposit covers about 50,000 reagents; shown is a part drawn at random. In the full data, about 4,000 (8%) are marked active. 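Mouse siRNA library applied to hamster cells; one well for each siRNA.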 A number with no mark means an inactive call. Reagents against one gene are numbered here. No sequences are given here.

target | reagent | GFP, % of control | viability (ATP), % of control
Vmn1r202 (GeneID 171258) | 1 | 63.5 | 40.9
Vmn1r202 (GeneID 171258) | 2 | 68.6 | 75.6
Vmn1r202 (GeneID 171258) | 3 | 97.1 | 98.3
1810055G02Rik (GeneID 72056) | 1 | 24.7 | 57.2
1810055G02Rik (GeneID 72056) | 2 | 97.1 | 70.5
1810055G02Rik (GeneID 72056) | 3 | 61.1 | 74.9
Trem1 (GeneID 58217) | 1 | 67.2 | 68.7
Trem1 (GeneID 58217) | 2 | 46.1 | 57.3
Trem1 (GeneID 58217) | 3 | 58.6 | 74.3
Spice1 (GeneID 212514) | 1 | 61.9 | 96.6
Spice1 (GeneID 212514) | 2 | 86.7 | 27
Spice1 (GeneID 212514) | 3 | 58.4 | 67
Tmsb4x (GeneID 19241) | 1 | 67.9 | 71
Tmsb4x (GeneID 19241) | 2 | 82.5 | 77.1
Tmsb4x (GeneID 19241) | 3 | 113 | 98.1
Or4c121 (GeneID 258969) | 1 | 71.1 | 52.3
Or4c121 (GeneID 258969) | 2 | 71.1 | 80.4
Or4c121 (GeneID 258969) | 3 | 48.6 | 60.1
Mrgpra4 (GeneID 235854) | 1 | 68.8 | 64.1
Mrgpra4 (GeneID 235854) | 2 | 76.3 | 66.9
Mrgpra4 (GeneID 235854) | 3 | 77.1 | 62.6
Mms22l (GeneID 212377) | 1 | 58.7 | 51.3
Mms22l (GeneID 212377) | 2 | 42.9 | 53.6
Mms22l (GeneID 212377) | 3 | 137 (active) | 56.9
Slc2a12 (GeneID 353169) | 1 | 85.3 | 83.8
Slc2a12 (GeneID 353169) | 2 | 99.2 | 83.2
Slc2a12 (GeneID 353169) | 3 | 69.7 | 71.6
Gtpbp2 (GeneID 56055) | 1 | 129 (active) | 106
Gtpbp2 (GeneID 56055) | 2 | 67.2 | 85.7
Gtpbp2 (GeneID 56055) | 3 | 69.1 | 44.4
Map3k14 (GeneID 53859) | 1 | 79.5 | 93.5
Heph (GeneID 15203) | 1 | 90.7 | 73.6
Heph (GeneID 15203) | 2 | 57.4 | 63.1
Heph (GeneID 15203) | 3 | 28.2 | 49.9
Dscaml1 (GeneID 114873) | 1 | 70.8 | 71.3
Dscaml1 (GeneID 114873) | 2 | 84.1 | 75.5
Dscaml1 (GeneID 114873) | 3 | 109 | 99.5
Pkp2 (GeneID 67451) | 1 | 86.3 | 75.8
Pkp2 (GeneID 67451) | 2 | 52.5 | 55.2
Pkp2 (GeneID 67451) | 3 | 70.2 | 75.5

Entries listed so far whose target name begins with S or s (6):
target | reagent | GFP, % of control | viability (ATP), % of control
Spice1 (GeneID 212514) | 1 | 61.9 | 96.6
Spice1 (GeneID 212514) | 2 | 86.7 | 27
Spice1 (GeneID 212514) | 3 | 58.4 | 67
Slc2a12 (GeneID 353169) | 1 | 85.3 | 83.8
Slc2a12 (GeneID 353169) | 2 | 99.2 | 83.2
Slc2a12 (GeneID 353169) | 3 | 69.7 | 71.6

Continued:
target | reagent | GFP, % of control | viability (ATP), % of control
Phldb2 (GeneID 208177) | 1 | 56.9 | 55.8
Phldb2 (GeneID 208177) | 2 | 50.1 | 90
Phldb2 (GeneID 208177) | 3 | 84.2 | 37.1
Gbp3 (GeneID 55932) | 1 | 92.2 | 56.4
Gbp3 (GeneID 55932) | 2 | 54.6 | 81.4
Gbp3 (GeneID 55932) | 3 | 42.9 | 46.8
Hoxa1 (GeneID 15394) | 1 | 68.8 | 105
Hoxa1 (GeneID 15394) | 2 | 153 (active) | 111
Hoxa1 (GeneID 15394) | 3 | 48.4 | 71.6
Setd1b (GeneID 208043) | 1 | 67.5 | 22.3
Setd1b (GeneID 208043) | 2 | 54.3 | 111
Setd1b (GeneID 208043) | 3 | 65.9 | 69.4
Trmt2a (GeneID 15547) | 1 | 103 | 101
Trmt2a (GeneID 15547) | 2 | 60.2 | 77.4
Trmt2a (GeneID 15547) | 3 | 24.5 | 60.1
Or5p54 (GeneID 258488) | 1 | 84.4 | 82
Or5p54 (GeneID 258488) | 2 | 122 (active) | 94
Or5p54 (GeneID 258488) | 3 | 82.9 | 76.7
Fkbp14 (GeneID 231997) | 1 | 66.2 | 64
Fkbp14 (GeneID 231997) | 2 | 118 | 90.3
Fkbp14 (GeneID 231997) | 3 | 91.9 | 94.8
Adam24 (GeneID 13526) | 1 | 140 (active) | 112
Adam24 (GeneID 13526) | 2 | 77 | 47.8
Adam24 (GeneID 13526) | 3 | 73.1 | 59.8
Akap7 (GeneID 432442) | 1 | 95.3 | 86.8
Akap7 (GeneID 432442) | 2 | 106 | 77.8
Akap7 (GeneID 432442) | 3 | 65.6 | 91.6
Recql5 (GeneID 170472) | 1 | 79.4 | 73.7
Recql5 (GeneID 170472) | 2 | 144 (active) | 153
Recql5 (GeneID 170472) | 3 | 53.4 | 68.5
Haus8 (GeneID 76478) | 1 | 93.2 | 37
Haus8 (GeneID 76478) | 2 | 55.5 | 72.4
Haus8 (GeneID 76478) | 3 | 114 | 87.8
Rab27b (GeneID 80718) | 1 | 40.2 | 68.4
Rab27b (GeneID 80718) | 2 | 85.3 | 73.4
Rasal3 (GeneID 320484) | 1 | 150 (active) | 67.9
Rasal3 (GeneID 320484) | 2 | 88.7 | 70.1
Rasal3 (GeneID 320484) | 3 | 74.2 | 42.7
Ccn1 (GeneID 16007) | 1 | 63.3 | 102
Ccn1 (GeneID 16007) | 2 | 59.5 | 92.8
Ccn1 (GeneID 16007) | 3 | 69.5 | 87.8
Tcfl5 (GeneID 277353) | 1 | 70 | 98.1
Tcfl5 (GeneID 277353) | 2 | 59.1 | 74.1
Tcfl5 (GeneID 277353) | 3 | 101 | 118
Or51h1 (GeneID 259107) | 1 | 106 | 90.8
Or51h1 (GeneID 259107) | 2 | 94.3 | 46.3
Or51h1 (GeneID 259107) | 3 | 55.6 | 69.3
Spint4 (GeneID 78239) | 1 | 104 | 60.3
Spint4 (GeneID 78239) | 2 | 75.5 | 84.1
Spint4 (GeneID 78239) | 3 | 102 | 97.6
6030445D17Rik (GeneID 320133) | 1 | 56.2 | 67.2
6030445D17Rik (GeneID 320133) | 2 | 94.2 | 102
6030445D17Rik (GeneID 320133) | 3 | 120 (active) | 124
Ankrd42 (GeneID 73845) | 1 | 177 (active) | 93.4
Ankrd42 (GeneID 73845) | 2 | 66.1 | 82.1
Ankrd42 (GeneID 73845) | 3 | 131 (active) | 140
Sntb1 (GeneID 20649) | 1 | 49.7 | 87.9
Sntb1 (GeneID 20649) | 2 | 107 | 70.2
Tdrd3 (GeneID 219249) | 1 | 70.4 | 44
Tdrd3 (GeneID 219249) | 2 | 139 (active) | 147
Tdrd3 (GeneID 219249) | 3 | 120 (active) | 112
Tex14 (GeneID 83560) | 1 | 116 | 75.9
Tex14 (GeneID 83560) | 2 | 98.2 | 72.9
Tex14 (GeneID 83560) | 3 | 47.2 | 43.1
Creld2 (GeneID 76737) | 1 | 77 | 88.9
Creld2 (GeneID 76737) | 2 | 98.3 | 74.8
Creld2 (GeneID 76737) | 3 | 104 | 126
